PubChem BioAssay AID1259405 | NCATS, 2018

Test: 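Silenced genes that increase secreted GFP made by CHO cells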 (primary screen)
System: Chinese hamster CHO-K1 ovary cells with stable secreted eGFP expression
Reagent: single siRNA against mouse genes, 0.8 pmol siRNA per well (2 µl of 400 nM stock)
Time to read-out: 3 days
Measurement: 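Percent of the per-plate non-targeting control median for intracellular GFP per well by laser scanning cytometry and for cell viability by ATP luminescence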
Direction: GFP, % of control: higher = more GFP per well, higher productivity; viability (ATP), % of control: higher = more viable cells (more ATP)
Rule for the call: 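Called active when intracellular GFP, relative to negative control, is at or above 120%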
In all, the deposit lists about 50,000 reagents; below is an unselected part. About 4,000 of all reagents (8%) count as active. 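Mouse siRNA library applied to hamster cells; one well for each siRNA.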 Entries without a mark were called inactive. The numbers tell different reagents against one gene apart.

| gene | reagent | GFP, % of control | viability (ATP), % of control |
| --- | --- | --- | --- |
| Smarcb1 | 1 | 52.1 | 72.6 |
| Smarcb1 | 2 | 64.1 | 87.4 |
| Smarcb1 | 3 | 62.9 | 60.8 |
| Lrrc46 | 1 | 137 (active) | 107 |
| Lrrc46 | 2 | 132 (active) | 56.4 |
| Lrrc46 | 3 | 112 | 73.1 |
| Grik2 | 1 | 62.3 | 96.5 |
| Grik2 | 2 | 52 | 55.7 |
| Grik2 | 3 | 56.1 | 63.7 |
| Cwh43 | 1 | 41.1 | 39.8 |
| Cwh43 | 2 | 57.2 | 69.5 |
| Cwh43 | 3 | 137 (active) | 104 |
| Naga | 1 | 69.3 | 72.5 |
| Naga | 2 | 66.9 | 78.3 |
| Naga | 3 | 59.5 | 75.6 |
| Duox2 | 1 | 113 | 116 |
| Duox2 | 2 | 112 | 67.6 |
| Duox2 | 3 | 96.5 | 47.6 |
| Nucb1 | 1 | 50 | 43 |
| Nucb1 | 2 | 83.7 | 82.4 |
| Haglr | 1 | 81.9 | 68.7 |
| Haglr | 2 | 90.4 | 102 |
| Haglr | 3 | 120 (active) | 140 |
| Or51f2 | 1 | 142 (active) | 100 |
| Or51f2 | 2 | 121 (active) | 63.5 |
| Or51f2 | 3 | 37.9 | 79 |
| Anpep | 1 | 83.2 | 62.5 |
| Anpep | 2 | 32.3 | 29.1 |
| Anpep | 3 | 36.5 | 48.2 |
| Or2r11 | 1 | 98.8 | 105 |
| Or2r11 | 2 | 63.8 | 45.7 |
| Or2r11 | 3 | 73.1 | 66.1 |
| Magi1 | 1 | 72.8 | 46 |
| Magi1 | 2 | 71.9 | 78.2 |
| Magi1 | 3 | 94.7 | 71 |

5 consecutive reagents already listed:
| gene | reagent | GFP, % of control | viability (ATP), % of control |
| --- | --- | --- | --- |
| Smarcb1 | 1 | 52.1 | 72.6 |
| Smarcb1 | 2 | 64.1 | 87.4 |
| Smarcb1 | 3 | 62.9 | 60.8 |
| Lrrc46 | 1 | 137 (active) | 107 |
| Lrrc46 | 2 | 132 (active) | 56.4 |
